{
  "source": "PubChem BioAssay AID248",
  "about": "(DTP/NCI, 2004)",
  "test_system": "L1210 leukemia ip in BDF1 mice, survival T/C",
  "experiment": "NCI In Vivo Anticancer Drug Screen. Data for tumor model L1210 Leukemia (intraperitoneal) in B6D2F1 (BDF1) mice",
  "settings": "T/C endpoint: mean survival time, higher T/C = longer survival",
  "key": {"[1]": {"settings": "dose: 400.0 mg/kg/injection, schedule: Q01DX001 (ip), vehicle: saline"}, "[2]": {"settings": "dose: 100.0 mg/kg/injection, schedule: Q04DX003 (ip), vehicle: saline"}, "[3]": {"settings": "dose: 200.0 mg/kg/injection, schedule: Q04DX003 (ip), vehicle: saline"}, "[4]": {"settings": "dose: 400.0 mg/kg/injection, schedule: Q04DX003 (ip), vehicle: saline"}, "[5]": {"settings": "dose: 400.0 mg/kg/injection, schedule: Q04DX003 (ip), vehicle: saline with Tween-80"}, "[6]": {"settings": "dose: 50.0 mg/kg/injection, schedule: Q01DX009 (ip), vehicle: Klucel (hydroxypropylcellulose) (HPC)"}, "[7]": {"settings": "dose: 200.0 mg/kg/injection, schedule: Q01DX009 (ip), vehicle: Klucel (hydroxypropylcellulose) (HPC)"}, "[8]": {"settings": "dose: 400.0 mg/kg/injection, schedule: Q04DX002 (ip), vehicle: Klucel (hydroxypropylcellulose) (HPC)"}, "[9]": {"settings": "dose: 300.0 mg/kg/injection, schedule: Q01DX001 (ip), vehicle: saline"}},
  "note": "The list is a part of this screen's results and no random one: it is rich in T/C values a quarter to a half above the control, in often repeated tests (any T/C) and in doses without a T/C. Further doses and runs are listed elsewhere. T/C: endpoint of the treated group in % of that of the vehicle group. Some doses have a count of surviving animals in place of a T/C: the source holds a T/C of zero for them, seemingly a mark for toxic or unscored doses. Some survivor counts are full or nearly so, which does not show that the dose was tolerated: the source hardly ever lists a survival T/C far under the control, and the zero likely stands for such cases as well. Counts of survivors are from the toxicity check (mostly the fifth day) where no day follows; animals may have died later. Schedule codes are those of the source, taken here to give the interval after Q, in days (D) or hours (H), and the number of doses after X. For survival time, this PubChem deposit counts one and a half times the control or more as active, and values a quarter to a half above the control carry no call in these data; other NCI protocols may use other cut-offs.",
  "data": [
    {"smiles": "CC1COCC(C)N1CC(=O)NCCCN1CCN(CCCNC(=O)CN2C(C)COCC2C)CC1", "note": "(stereo unspecified)", "values": [
      {"measurement": "T/C", "setting": "dose: 100.0 mg/kg/injection, schedule: Q01DX001 (ip), vehicle: saline", "result": "128 % of control"},
      {"measurement": "survivor count", "setting": "[1]", "result": "0 of 4"}
    ]},
    {"smiles": "O=[N+]([O-])c1ccc(C=Nc2cccc(C(F)(F)F)c2)cc1", "values": [
      {"measurement": "survivor count", "setting": "dose: 400.0 mg/kg/injection, schedule: Q01DX009 (ip), vehicle: Klucel (hydroxypropylcellulose) (HPC)", "result": "1 of 6"}
    ]},
    {"smiles": "CN(C)Cc1cccc([N+](=O)[O-])c1", "values": [
      {"measurement": "survivor count", "setting": "[2]", "result": "5 of 6"},
      {"measurement": "survivor count", "setting": "[3]", "result": "0 of 6"},
      {"measurement": "survivor count", "setting": "[4]", "result": "0 of 6"}
    ]},
    {"smiles": "CCOC(=O)/C=C/c1ccco1", "values": [
      {"measurement": "survivor count", "setting": "[5]", "result": "3 of 6"}
    ]},
    {"smiles": "Cc1ccc(Cl)cc1NS(=O)(=O)c1cccc([N+](=O)[O-])c1", "values": [
      {"measurement": "survivor count", "setting": "dose: 400.0 mg/kg/injection, schedule: Q01DX009 (ip), vehicle: saline with Tween-80", "result": "6 of 6"}
    ]},
    {"smiles": "CN(C)C1CC1c1ccccc1", "note": "(stereo unspecified)", "values": [
      {"measurement": "survivor count", "setting": "dose: 100.0 mg/kg/injection, schedule: Q01DX009 (ip), vehicle: saline", "result": "2 of 6"},
      {"measurement": "survivor count", "setting": "[3]", "result": "2 of 4"},
      {"measurement": "survivor count", "setting": "[4]", "result": "0 of 4"}
    ]},
    {"smiles": "Cc1ccc([N+](=O)[O-])cc1NC(=O)Nc1cccc(F)c1", "values": [
      {"measurement": "survivor count", "setting": "dose: 25.0 mg/kg/injection, schedule: Q01DX009 (ip), vehicle: Klucel (hydroxypropylcellulose) (HPC)", "result": "6 of 6"},
      {"measurement": "survivor count", "setting": "[6]", "result": "6 of 6"},
      {"measurement": "survivor count", "setting": "dose: 100.0 mg/kg/injection, schedule: Q01DX009 (ip), vehicle: Klucel (hydroxypropylcellulose) (HPC)", "result": "6 of 6"},
      {"measurement": "survivor count", "setting": "[7]", "result": "6 of 6"}
    ]},
    {"smiles": "Nc1nc(N)c2nc(CNc3ccc(C(=O)NCCCC(=O)O)cc3)cnc2n1", "note": "(tested in a mixture with another compound)", "values": [
      {"measurement": "survivor count", "setting": "dose: 50.0 mg/kg/injection, schedule: Q01DX001 (ip), vehicle: Klucel (hydroxypropylcellulose) (HPC)", "result": "2 of 6"},
      {"measurement": "survivor count", "setting": "dose: 200.0 mg/kg/injection, schedule: Q01DX001 (ip), vehicle: Klucel (hydroxypropylcellulose) (HPC)", "result": "2 of 6"},
      {"measurement": "survivor count", "setting": "dose: 400.0 mg/kg/injection, schedule: Q01DX001 (ip), vehicle: Klucel (hydroxypropylcellulose) (HPC)", "result": "0 of 6"}
    ]},
    {"smiles": "CN(C)C(=O)OCC[N+](C)(C)CCCCCCCCCC[N+](C)(C)CCOC(=O)N(C)C", "values": [
      {"measurement": "survivor count", "setting": "dose: 10.0 mg/kg/injection, schedule: Q04DX003 (ip), vehicle: saline", "result": "0 of 6"},
      {"measurement": "survivor count", "setting": "dose: 20.0 mg/kg/injection, schedule: Q04DX003 (ip), vehicle: saline", "result": "0 of 6"},
      {"measurement": "survivor count", "setting": "[2]", "result": "0 of 6"},
      {"measurement": "survivor count", "setting": "[3]", "result": "0 of 6"},
      {"measurement": "survivor count", "setting": "[4]", "result": "0 of 6"}
    ]},
    {"smiles": "O=[N+]([O-])c1cc(Cl)cc(Cl)c1O", "values": [
      {"measurement": "survivor count", "setting": "[6]", "result": "2 of 3"},
      {"measurement": "survivor count", "setting": "dose: 100.0 mg/kg/injection, schedule: Q04DX002 (ip), vehicle: Klucel (hydroxypropylcellulose) (HPC)", "result": "0 of 3"},
      {"measurement": "survivor count", "setting": "dose: 200.0 mg/kg/injection, schedule: Q04DX002 (ip), vehicle: Klucel (hydroxypropylcellulose) (HPC)", "result": "0 of 3"},
      {"measurement": "survivor count", "setting": "[8]", "result": "0 of 3"}
    ]},
    {"smiles": "NC1CC=CCC1c1ccc2c(c1)OCO2", "note": "(stereo unspecified)", "values": [
      {"measurement": "survivor count", "setting": "[9]", "result": "0 of 6"}
    ]},
    {"smiles": "CCCCCCCC(C)NCCOC(=O)c1ccc(N)cc1", "note": "(stereo unspecified)", "values": [
      {"measurement": "survivor count", "setting": "dose: 300.0 mg/kg/injection, schedule: Q01DX001 (ip), vehicle: other", "result": "0 of 6"}
    ]},
    {"smiles": "O=C1CC(Cl)C(=O)N1c1ccccc1", "note": "(stereo unspecified)", "values": [
      {"measurement": "survivor count", "setting": "dose: 300.0 mg/kg/injection, schedule: Q01DX009 (ip), vehicle: saline with Tween-80", "result": "0 of 6"}
    ]},
    {"smiles": "c1ccc2c(c1)C1c3ccccc3C2C2COCC12", "note": "(stereo unspecified)", "values": [
      {"measurement": "survivor count", "setting": "[7]", "result": "0 of 6"},
      {"measurement": "survivor count", "setting": "dose: 400.0 mg/kg/injection, schedule: Q04DX003 (ip), vehicle: Klucel (hydroxypropylcellulose) (HPC)", "result": "2 of 6"}
    ]},
    {"smiles": "CC(=O)OCCS(=O)(=O)c1c(Cl)c(Cl)c(Cl)c(Cl)c1Cl", "values": [
      {"measurement": "survivor count", "setting": "[8]", "result": "3 of 3"}
    ]},
    {"smiles": "N#[N+]c1ccc2[nH]c3ccccc3c(=O)c2c1", "values": [
      {"measurement": "survivor count", "setting": "dose: 75.0 mg/kg/injection, schedule: Q01DX001 (ip), vehicle: saline", "result": "1 of 6"},
      {"measurement": "survivor count", "setting": "dose: 150.0 mg/kg/injection, schedule: Q01DX001 (ip), vehicle: saline", "result": "1 of 6"},
      {"measurement": "survivor count", "setting": "[9]", "result": "1 of 6"}
    ]},
    {"smiles": "CCNC(=S)Nc1ccc(Cl)cc1", "values": [
      {"measurement": "survivor count", "setting": "dose: 200.0 mg/kg/injection, schedule: Q04DX003 (ip), vehicle: saline with Tween-80", "result": "0 of 6"},
      {"measurement": "survivor count", "setting": "[5]", "result": "0 of 6"}
    ]},
    {"smiles": "COc1cc(C=Nc2cc(Cl)c(O)c(Cl)c2)ccc1N(CCCl)CCCl", "values": [
      {"measurement": "T/C", "setting": "dose: 3.2 mg/kg/injection, schedule: Q01DX009 (ip), vehicle: carboxymethylcellulose (CMC)", "result": "137 % of control"},
      {"measurement": "T/C", "setting": "dose: 4.8 mg/kg/injection, schedule: Q01DX009 (ip), vehicle: carboxymethylcellulose (CMC)", "result": "146 % of control"},
      {"measurement": "T/C", "setting": "dose: 7.3 mg/kg/injection, schedule: Q01DX009 (ip), vehicle: carboxymethylcellulose (CMC)", "result": "136 % of control"},
      {"measurement": "T/C", "setting": "dose: 8.0 mg/kg/injection, schedule: Q01DX009 (ip), vehicle: carboxymethylcellulose (CMC)", "result": "130 % of control"},
      {"measurement": "survivor count", "setting": "dose: 16.6 mg/kg/injection, schedule: Q01DX009 (ip), vehicle: carboxymethylcellulose (CMC)", "result": "0 of 6"},
      {"measurement": "T/C", "setting": "dose: 25.0 mg/kg/injection, schedule: Q01DX001 (ip), vehicle: carboxymethylcellulose (CMC)", "result": "126 % of control"},
      {"measurement": "survivor count", "setting": "dose: 25.0 mg/kg/injection, schedule: Q01DX009 (ip), vehicle: carboxymethylcellulose (CMC)", "result": "0 of 6"},
      {"measurement": "T/C", "setting": "dose: 37.5 mg/kg/injection, schedule: Q01DX001 (ip), vehicle: carboxymethylcellulose (CMC), evaluated on day 30", "result": "127 % of control"},
      {"measurement": "T/C", "setting": "dose: 37.5 mg/kg/injection, schedule: Q01DX001 (ip), vehicle: carboxymethylcellulose (CMC), run until all animals had died", "result": "142 % of control"},
      {"measurement": "survivor count", "setting": "dose: 37.5 mg/kg/injection, schedule: Q01DX009 (ip), vehicle: carboxymethylcellulose (CMC)", "result": "0 of 6"},
      {"measurement": "survivor count", "setting": "dose: 100.0 mg/kg/injection, schedule: Q01DX001 (ip), vehicle: carboxymethylcellulose (CMC)", "result": "0 of 4"},
      {"measurement": "survivor count", "setting": "dose: 200.0 mg/kg/injection, schedule: Q01DX001 (ip), vehicle: carboxymethylcellulose (CMC)", "result": "0 of 4"},
      {"measurement": "survivor count", "setting": "dose: 400.0 mg/kg/injection, schedule: Q01DX001 (ip), vehicle: carboxymethylcellulose (CMC)", "result": "0 of 4"}
    ]},
    {"smiles": "CCCCCCP(C)(=O)CCCCCC", "values": [
      {"measurement": "survivor count", "setting": "dose: 200.0 mg/kg/injection, schedule: Q01DX001 (ip), vehicle: saline with Tween-80", "result": "3 of 6"},
      {"measurement": "survivor count", "setting": "dose: 400.0 mg/kg/injection, schedule: Q01DX001 (ip), vehicle: saline with Tween-80", "result": "0 of 6"}
    ]},
    {"smiles": "CN(c1ccccc1Cl)c1ccccc1Cl", "values": [
      {"measurement": "survivor count", "setting": "dose: 25.6 mg/kg/injection, schedule: Q04DX002 (ip), vehicle: saline with Tween-80", "result": "3 of 3"}
    ]},
    {"smiles": "CCN1CCCCCCCCCC(=N/O)/C(=N\\O)C1", "values": [
      {"measurement": "survivor count", "setting": "[1]", "result": "0 of 6"}
    ]},
    {"smiles": "CC(C)CC(C)OC(C[N+](=O)[O-])C(Cl)(Cl)Cl", "note": "(stereo unspecified)", "values": [
      {"measurement": "survivor count", "setting": "dose: 200.0 mg/kg/injection, schedule: Q01DX009 (ip), vehicle: saline with Tween-80", "result": "6 of 6"}
    ]}
  ]
}
